Results: paper PMC3739823, “Structural Guided Scaffold Phage Display Libraries as a Source of Bio-Therapeutics” (PLoS ONE, 2013)
No constants are given. Whether binding was seen depends on the method and setting. Some results given as binding are weak or reduced against the parent protein; the word gives no strength.

Chains of the proteins cited; added tags and fusions are not shown. Lines headed by an entry give the natural chain unless they say otherwise; changes in a name come on top.
UniProt P06756: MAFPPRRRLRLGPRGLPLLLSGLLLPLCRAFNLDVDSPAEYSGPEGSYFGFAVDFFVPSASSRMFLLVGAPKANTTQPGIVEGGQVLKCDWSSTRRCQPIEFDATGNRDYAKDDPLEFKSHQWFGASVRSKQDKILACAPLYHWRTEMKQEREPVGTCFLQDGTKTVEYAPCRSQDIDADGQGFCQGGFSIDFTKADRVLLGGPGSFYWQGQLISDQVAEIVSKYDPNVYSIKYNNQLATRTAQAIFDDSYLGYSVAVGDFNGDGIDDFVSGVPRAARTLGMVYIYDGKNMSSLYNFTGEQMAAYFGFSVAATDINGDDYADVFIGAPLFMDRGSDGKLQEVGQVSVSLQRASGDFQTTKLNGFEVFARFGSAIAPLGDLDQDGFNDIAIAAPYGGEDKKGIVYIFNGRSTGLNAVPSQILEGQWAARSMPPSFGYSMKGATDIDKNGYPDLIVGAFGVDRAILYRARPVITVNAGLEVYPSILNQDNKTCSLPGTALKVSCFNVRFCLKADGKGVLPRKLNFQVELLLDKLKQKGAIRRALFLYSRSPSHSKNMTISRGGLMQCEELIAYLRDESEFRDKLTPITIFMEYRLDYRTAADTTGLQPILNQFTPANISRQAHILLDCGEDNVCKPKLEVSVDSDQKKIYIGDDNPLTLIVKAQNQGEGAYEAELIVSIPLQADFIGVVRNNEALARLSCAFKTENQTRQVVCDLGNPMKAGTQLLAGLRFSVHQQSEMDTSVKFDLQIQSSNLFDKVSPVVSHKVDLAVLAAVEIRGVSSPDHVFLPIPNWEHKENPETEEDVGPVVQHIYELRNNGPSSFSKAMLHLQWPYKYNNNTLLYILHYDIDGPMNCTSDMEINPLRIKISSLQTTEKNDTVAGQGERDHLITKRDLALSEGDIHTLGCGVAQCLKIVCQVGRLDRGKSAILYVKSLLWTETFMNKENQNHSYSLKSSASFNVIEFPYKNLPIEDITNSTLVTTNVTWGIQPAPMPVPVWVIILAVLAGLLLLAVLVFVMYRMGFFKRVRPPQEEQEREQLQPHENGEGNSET
UniProt P08648: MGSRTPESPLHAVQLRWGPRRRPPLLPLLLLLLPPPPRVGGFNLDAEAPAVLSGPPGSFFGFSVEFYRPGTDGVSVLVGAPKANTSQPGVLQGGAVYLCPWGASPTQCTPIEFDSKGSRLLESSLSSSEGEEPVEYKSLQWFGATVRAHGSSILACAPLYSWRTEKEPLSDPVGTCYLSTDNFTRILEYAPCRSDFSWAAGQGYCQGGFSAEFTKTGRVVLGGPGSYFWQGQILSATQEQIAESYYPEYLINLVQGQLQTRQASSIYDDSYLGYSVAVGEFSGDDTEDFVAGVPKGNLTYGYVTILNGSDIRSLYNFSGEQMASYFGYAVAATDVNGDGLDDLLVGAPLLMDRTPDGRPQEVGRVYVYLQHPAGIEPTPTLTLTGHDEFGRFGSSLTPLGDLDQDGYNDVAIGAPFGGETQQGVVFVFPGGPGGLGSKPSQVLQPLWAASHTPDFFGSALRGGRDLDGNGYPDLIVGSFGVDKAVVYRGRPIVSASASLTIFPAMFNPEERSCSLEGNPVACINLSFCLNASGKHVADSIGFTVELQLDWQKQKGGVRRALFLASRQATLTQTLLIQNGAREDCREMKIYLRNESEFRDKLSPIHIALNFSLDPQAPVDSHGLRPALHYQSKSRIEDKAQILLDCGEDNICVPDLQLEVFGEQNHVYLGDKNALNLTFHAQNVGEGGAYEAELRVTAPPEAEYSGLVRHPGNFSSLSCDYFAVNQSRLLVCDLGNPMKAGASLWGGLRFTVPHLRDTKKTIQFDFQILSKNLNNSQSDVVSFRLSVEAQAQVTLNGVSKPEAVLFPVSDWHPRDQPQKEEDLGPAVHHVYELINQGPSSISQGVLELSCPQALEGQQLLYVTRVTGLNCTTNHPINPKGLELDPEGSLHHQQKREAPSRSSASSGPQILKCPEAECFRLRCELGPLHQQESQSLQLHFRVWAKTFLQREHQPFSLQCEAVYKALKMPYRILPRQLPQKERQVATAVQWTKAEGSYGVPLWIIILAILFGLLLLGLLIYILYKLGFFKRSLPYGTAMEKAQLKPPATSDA

Experiments:
Assay in all cases: flow cytometry on cells; only the binder purified
[1] = molecular target: integrin αvβ5 on A375Ppuro cells (human (endogenous in A375Ppuro)) (UniProt P06756)
[2] = molecular target: integrin α5β1 on A375Ppuro cells (human (endogenous in A375Ppuro)) (UniProt P08648)
[3] = molecular target: integrin αvβ8 on A375Ppuro cells (human (endogenous in A375Ppuro)) (UniProt P06756)
[4] = molecular target: integrin αvβ3 on A375Ppuro cells (human (endogenous in A375Ppuro)) (UniProt P06756)
[5] = molecular target: integrin αvβ6 on A375Pβ6 cells (human (endogenous in A375Pβ6) | not stated) (UniProt P06756)

EPRGDLRTLAAREKRNFNETLARLQEKGI (biotin (biotinylated-D25p; position not stated)) [D25p, VH-CDR3 derived peptide of D25scFv]
binding [1]: no binding (tested: 1 uM) | binding [2]: no binding (tested: 1 uM) | binding [3]: no binding (tested: 1 uM) | binding [4]: no binding (tested: 1 uM) | binding [5]: binds
